Sequences of proteins named here, by UniProt entry; tags and fusion partners are left off. A change or cut given only in a name is not applied to a line headed by its entry.
UniProt P30285: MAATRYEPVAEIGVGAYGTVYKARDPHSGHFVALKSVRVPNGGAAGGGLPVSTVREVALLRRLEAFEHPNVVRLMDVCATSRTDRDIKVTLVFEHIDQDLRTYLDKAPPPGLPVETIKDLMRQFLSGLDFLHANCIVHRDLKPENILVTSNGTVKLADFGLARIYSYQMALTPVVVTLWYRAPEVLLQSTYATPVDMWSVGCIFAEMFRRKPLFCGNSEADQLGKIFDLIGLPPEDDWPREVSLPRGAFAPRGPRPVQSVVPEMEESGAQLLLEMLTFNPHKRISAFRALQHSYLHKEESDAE
UniProt P49817: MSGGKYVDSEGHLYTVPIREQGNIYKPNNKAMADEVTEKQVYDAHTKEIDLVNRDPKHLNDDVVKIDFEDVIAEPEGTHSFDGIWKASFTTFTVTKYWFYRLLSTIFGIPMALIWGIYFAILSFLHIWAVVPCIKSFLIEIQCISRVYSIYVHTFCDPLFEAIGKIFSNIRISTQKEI
UniProt P56183: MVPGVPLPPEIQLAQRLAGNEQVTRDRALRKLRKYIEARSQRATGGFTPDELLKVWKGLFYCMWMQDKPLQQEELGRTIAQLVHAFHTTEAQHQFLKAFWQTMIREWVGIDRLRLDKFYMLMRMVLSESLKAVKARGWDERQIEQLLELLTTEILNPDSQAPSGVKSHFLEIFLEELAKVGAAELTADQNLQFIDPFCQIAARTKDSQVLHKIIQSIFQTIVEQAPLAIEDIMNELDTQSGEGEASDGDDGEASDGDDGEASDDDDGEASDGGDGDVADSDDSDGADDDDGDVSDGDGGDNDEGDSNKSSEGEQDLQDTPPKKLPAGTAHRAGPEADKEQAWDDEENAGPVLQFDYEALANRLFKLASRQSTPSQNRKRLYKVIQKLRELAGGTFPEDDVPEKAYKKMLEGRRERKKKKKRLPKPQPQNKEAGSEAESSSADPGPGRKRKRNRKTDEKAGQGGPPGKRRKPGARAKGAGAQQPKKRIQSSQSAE
UniProt P54869: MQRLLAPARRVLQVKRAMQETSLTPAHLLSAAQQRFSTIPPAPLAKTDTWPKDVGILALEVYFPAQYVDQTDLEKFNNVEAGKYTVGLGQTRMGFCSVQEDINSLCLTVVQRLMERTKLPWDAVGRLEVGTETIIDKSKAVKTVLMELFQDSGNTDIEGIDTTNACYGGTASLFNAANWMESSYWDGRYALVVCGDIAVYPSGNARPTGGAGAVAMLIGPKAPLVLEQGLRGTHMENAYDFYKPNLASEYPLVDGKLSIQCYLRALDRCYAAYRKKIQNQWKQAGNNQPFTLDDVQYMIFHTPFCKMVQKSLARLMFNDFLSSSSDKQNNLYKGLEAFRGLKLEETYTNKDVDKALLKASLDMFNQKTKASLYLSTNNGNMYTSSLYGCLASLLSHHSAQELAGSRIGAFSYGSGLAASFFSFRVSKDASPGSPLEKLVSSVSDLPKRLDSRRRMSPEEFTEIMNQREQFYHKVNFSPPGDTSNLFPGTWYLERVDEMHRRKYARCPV
UniProt P55772, whole entry: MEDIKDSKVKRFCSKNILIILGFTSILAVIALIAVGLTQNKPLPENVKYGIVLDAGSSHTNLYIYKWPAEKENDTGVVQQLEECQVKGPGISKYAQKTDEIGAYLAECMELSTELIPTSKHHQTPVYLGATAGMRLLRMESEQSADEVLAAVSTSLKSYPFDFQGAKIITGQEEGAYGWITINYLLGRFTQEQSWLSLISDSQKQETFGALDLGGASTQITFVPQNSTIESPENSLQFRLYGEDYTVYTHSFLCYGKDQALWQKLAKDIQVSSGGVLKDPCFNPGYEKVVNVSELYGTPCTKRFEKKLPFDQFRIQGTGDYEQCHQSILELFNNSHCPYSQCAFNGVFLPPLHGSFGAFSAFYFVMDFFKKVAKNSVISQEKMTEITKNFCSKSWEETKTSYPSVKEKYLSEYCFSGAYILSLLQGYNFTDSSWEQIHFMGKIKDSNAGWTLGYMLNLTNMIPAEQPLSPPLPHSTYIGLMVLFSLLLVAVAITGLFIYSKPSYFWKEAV
UniProt P28665: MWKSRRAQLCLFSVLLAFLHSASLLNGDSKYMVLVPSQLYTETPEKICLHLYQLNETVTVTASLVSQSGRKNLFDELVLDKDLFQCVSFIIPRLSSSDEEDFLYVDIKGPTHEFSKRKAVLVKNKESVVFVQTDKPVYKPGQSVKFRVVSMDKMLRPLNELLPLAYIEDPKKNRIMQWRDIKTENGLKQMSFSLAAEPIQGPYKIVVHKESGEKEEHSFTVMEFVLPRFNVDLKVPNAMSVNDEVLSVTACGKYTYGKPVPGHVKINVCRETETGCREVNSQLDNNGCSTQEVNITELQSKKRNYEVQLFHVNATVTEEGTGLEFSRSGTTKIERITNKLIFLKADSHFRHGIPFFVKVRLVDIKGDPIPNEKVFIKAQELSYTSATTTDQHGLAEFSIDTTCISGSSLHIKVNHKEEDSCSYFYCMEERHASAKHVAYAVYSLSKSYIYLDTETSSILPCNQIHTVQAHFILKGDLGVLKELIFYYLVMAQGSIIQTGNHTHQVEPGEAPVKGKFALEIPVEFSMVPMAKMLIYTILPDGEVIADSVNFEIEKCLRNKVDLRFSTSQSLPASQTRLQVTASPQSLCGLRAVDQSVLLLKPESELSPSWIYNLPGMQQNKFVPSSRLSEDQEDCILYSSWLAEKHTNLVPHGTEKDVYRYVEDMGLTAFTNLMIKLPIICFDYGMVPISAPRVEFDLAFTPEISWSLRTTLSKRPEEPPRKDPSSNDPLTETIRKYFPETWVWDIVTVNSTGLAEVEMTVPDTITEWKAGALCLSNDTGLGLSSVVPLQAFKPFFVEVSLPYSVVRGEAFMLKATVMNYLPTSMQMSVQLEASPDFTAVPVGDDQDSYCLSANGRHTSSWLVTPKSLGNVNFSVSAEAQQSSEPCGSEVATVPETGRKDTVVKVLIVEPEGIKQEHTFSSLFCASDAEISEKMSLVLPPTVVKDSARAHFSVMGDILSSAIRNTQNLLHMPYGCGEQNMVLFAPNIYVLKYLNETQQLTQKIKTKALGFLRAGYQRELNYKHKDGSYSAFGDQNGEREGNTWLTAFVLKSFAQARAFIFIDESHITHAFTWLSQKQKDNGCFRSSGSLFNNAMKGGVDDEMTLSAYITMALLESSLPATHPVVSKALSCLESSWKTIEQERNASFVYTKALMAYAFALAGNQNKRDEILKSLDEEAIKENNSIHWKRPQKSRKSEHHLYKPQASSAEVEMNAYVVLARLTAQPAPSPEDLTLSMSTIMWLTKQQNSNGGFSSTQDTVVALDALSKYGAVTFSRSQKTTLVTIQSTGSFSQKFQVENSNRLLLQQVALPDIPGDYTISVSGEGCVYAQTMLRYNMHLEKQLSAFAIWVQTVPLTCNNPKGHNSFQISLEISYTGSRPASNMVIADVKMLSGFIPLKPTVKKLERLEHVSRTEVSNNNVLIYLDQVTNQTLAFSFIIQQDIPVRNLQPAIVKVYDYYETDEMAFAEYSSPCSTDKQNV
UniProt P28660: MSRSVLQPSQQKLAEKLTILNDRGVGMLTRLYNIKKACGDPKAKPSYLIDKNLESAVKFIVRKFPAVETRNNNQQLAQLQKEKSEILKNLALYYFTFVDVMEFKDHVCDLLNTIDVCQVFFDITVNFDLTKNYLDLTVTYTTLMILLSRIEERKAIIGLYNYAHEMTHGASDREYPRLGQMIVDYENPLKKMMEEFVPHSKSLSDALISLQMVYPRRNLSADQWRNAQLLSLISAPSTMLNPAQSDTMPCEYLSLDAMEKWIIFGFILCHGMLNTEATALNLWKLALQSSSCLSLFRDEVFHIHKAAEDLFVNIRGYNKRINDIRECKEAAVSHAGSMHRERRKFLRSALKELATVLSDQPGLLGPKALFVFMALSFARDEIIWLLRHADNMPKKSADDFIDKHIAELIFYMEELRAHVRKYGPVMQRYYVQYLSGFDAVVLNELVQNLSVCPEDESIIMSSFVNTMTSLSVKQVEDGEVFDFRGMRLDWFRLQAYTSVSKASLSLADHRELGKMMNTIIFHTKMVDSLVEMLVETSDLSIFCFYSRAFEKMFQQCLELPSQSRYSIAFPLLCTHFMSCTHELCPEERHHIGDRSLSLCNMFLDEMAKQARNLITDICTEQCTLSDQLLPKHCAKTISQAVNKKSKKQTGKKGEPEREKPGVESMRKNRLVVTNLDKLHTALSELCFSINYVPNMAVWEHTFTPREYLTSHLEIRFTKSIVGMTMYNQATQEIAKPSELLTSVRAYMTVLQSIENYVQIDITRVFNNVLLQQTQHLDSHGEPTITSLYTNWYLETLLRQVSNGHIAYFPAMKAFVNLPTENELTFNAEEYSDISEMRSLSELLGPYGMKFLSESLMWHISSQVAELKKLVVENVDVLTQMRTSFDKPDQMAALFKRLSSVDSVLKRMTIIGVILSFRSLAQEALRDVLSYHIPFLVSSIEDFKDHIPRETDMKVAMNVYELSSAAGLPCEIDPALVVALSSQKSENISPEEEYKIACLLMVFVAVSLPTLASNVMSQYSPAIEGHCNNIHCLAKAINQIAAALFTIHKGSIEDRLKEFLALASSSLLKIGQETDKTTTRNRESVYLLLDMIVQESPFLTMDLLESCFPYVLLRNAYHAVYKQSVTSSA
UniProt P43025: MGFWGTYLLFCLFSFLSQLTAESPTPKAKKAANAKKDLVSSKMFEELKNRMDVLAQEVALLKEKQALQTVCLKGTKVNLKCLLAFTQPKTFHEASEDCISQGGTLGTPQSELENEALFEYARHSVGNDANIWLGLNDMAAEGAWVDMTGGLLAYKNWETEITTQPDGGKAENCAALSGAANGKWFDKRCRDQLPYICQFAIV
UniProt P52624: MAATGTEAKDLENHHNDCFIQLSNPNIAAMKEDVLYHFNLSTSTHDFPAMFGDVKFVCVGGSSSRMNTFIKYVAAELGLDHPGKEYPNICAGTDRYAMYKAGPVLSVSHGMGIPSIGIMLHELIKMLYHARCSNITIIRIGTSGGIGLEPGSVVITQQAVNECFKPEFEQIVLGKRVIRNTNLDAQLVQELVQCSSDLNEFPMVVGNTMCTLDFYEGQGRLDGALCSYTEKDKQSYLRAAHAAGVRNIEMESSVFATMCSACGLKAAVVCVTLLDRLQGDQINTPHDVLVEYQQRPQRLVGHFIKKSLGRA
UniProt P40336, whole entry: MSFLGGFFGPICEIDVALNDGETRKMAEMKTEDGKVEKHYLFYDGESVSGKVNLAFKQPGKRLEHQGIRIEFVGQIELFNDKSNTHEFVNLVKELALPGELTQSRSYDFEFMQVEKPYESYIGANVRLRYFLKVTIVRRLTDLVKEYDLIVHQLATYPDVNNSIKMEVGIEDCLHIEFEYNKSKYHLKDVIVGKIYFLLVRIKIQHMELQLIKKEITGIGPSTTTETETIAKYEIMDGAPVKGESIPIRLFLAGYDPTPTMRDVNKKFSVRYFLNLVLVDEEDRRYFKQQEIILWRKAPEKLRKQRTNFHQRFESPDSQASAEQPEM
UniProt P48722: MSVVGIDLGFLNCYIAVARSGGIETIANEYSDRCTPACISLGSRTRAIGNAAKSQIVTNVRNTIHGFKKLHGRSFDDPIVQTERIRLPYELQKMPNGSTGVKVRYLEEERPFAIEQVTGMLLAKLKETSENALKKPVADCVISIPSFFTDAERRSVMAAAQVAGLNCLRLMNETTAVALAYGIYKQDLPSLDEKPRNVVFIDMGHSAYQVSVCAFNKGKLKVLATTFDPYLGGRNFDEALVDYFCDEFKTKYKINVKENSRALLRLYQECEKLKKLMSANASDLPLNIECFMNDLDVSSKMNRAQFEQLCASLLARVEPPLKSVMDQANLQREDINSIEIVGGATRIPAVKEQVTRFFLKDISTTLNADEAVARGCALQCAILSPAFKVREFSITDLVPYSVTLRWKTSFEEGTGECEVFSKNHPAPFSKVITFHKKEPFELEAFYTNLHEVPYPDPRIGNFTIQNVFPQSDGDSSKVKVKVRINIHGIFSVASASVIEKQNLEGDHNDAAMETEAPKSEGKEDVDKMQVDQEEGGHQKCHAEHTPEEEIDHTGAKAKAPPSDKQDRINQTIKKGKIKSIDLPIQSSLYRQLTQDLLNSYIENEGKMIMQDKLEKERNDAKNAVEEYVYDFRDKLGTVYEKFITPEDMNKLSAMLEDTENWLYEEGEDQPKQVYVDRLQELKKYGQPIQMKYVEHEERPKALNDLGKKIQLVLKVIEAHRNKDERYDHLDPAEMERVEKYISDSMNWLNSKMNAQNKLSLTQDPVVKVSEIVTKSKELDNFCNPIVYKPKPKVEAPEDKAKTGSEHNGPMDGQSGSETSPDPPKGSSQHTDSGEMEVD
UniProt P50172: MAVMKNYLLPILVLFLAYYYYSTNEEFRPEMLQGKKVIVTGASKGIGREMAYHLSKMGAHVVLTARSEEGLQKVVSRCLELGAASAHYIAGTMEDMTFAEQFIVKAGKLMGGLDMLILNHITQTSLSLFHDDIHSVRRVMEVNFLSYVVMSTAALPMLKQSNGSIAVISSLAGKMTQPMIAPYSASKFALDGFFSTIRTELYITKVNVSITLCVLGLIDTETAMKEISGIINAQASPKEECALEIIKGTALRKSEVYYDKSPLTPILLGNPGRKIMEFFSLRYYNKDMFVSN

This is one part of the list. Most entries show no effect beyond the scatter of the controls.
These targets were tested with CN[C@@H]1C[C@H]2O[C@@](C)([C@@H]1OC)n1c3ccccc3c3c4c(c5c6ccccc6n2c5c31)C(=O)NC4 [staurosporine] (assay: log2 fold change of pooled soluble protein (PISA), ligand vs vehicle (log2 ratio); higher = more thermally stabilized). Conditions: ligand concentration: 20 uM; assay format: PISA pool 52.9/55.5/58.6 C.
With UniProt P55292 the “log2 fold change of pooled soluble protein” value (“log2 fold change” below) was -0.084.
For UniProt P50431, the “log2 fold change” value was 0.0917.
UniProt P30285 was tested, and the “log2 fold change” value was -0.216.
With UniProt P53026 the “log2 fold change” value was 0.144.
In the case of UniProt P50516, the “log2 fold change” value is reported as 0.0873.
With UniProt P51830 the “log2 fold change” value was -0.0844.
In the case of UniProt P49817, the “log2 fold change” value is reported as -0.521.
UniProt P46638 was tested, and the “log2 fold change” value was -0.0224.
UniProt P56399 was tested, and the “log2 fold change” value was -0.0121.
In the case of UniProt P47934, the “log2 fold change” value is reported as -0.0153.
With UniProt P31651 the “log2 fold change” value was 0.176.
UniProt P56183 was tested, and the “log2 fold change” value was 0.0169.
With UniProt P46414 the “log2 fold change” value was -0.059.
For UniProt P54731, the “log2 fold change” value was -0.0936.
For UniProt P38647, the “log2 fold change” value was -0.0309.
With UniProt P47758 the “log2 fold change” value was -0.000928.
UniProt P32507 was tested, and the “log2 fold change” value was -0.101.
UniProt P54869 was tested, and the “log2 fold change” value was -0.0324.
In the case of UniProt P51885, the “log2 fold change” value is reported as 0.00187.
For UniProt P55772, the “log2 fold change” value was -0.0822.
In the case of UniProt P28665, the “log2 fold change” value is reported as 0.0161.
In the case of UniProt P35979, the “log2 fold change” value is reported as 0.157.
For UniProt P28660, the “log2 fold change” value was 0.175.
UniProt P42567 was tested, and the “log2 fold change” value was -0.0297.
In the case of UniProt P43025, the “log2 fold change” value is reported as -0.0291.
UniProt P52624 was tested, and the “log2 fold change” value was 0.253.
With UniProt P29758 the “log2 fold change” value was -0.0381.
With UniProt P47811 the “log2 fold change” value was 0.0759.
UniProt P40336 was tested, and the “log2 fold change” value was 0.256.
For UniProt P51410, the “log2 fold change” value was -0.288.
With UniProt P48722 the “log2 fold change” value was -0.165.
UniProt P42925 was tested, and the “log2 fold change” value was 0.26.
For UniProt P35330, the “log2 fold change” value was 0.138.
UniProt P50136 was tested, and the “log2 fold change” value was -0.0901.
With UniProt P45377 the “log2 fold change” value was 0.000474.
UniProt P50172 was tested, and the “log2 fold change” value was -0.0767.
UniProt P35569 was tested, and the “log2 fold change” value was -0.004.

Reference: the supplement of paper PMC12819154, “High-throughput peptide-centric local stability assay extends protein–ligand identification to membrane proteins, tissues and bacteria” (Nature Structural & Molecular Biology, 2025)
